Measured values reported in publication PMC7238515.
No constants are given. Whether binding was seen depends on the method and setting. Binding seen in cells or lysates may run through a third protein. Some results given as binding are weak or reduced against the parent protein; the word gives no strength.

The chains behind the UniProt entries cited, without tags or fusion partners. Where a name states a change or a piece, a line headed by the entry shows the natural chain unless it says otherwise. A line that says so, or that is headed by a name, gives the form on record, which may keep a tag or linker.
UniProt P06401: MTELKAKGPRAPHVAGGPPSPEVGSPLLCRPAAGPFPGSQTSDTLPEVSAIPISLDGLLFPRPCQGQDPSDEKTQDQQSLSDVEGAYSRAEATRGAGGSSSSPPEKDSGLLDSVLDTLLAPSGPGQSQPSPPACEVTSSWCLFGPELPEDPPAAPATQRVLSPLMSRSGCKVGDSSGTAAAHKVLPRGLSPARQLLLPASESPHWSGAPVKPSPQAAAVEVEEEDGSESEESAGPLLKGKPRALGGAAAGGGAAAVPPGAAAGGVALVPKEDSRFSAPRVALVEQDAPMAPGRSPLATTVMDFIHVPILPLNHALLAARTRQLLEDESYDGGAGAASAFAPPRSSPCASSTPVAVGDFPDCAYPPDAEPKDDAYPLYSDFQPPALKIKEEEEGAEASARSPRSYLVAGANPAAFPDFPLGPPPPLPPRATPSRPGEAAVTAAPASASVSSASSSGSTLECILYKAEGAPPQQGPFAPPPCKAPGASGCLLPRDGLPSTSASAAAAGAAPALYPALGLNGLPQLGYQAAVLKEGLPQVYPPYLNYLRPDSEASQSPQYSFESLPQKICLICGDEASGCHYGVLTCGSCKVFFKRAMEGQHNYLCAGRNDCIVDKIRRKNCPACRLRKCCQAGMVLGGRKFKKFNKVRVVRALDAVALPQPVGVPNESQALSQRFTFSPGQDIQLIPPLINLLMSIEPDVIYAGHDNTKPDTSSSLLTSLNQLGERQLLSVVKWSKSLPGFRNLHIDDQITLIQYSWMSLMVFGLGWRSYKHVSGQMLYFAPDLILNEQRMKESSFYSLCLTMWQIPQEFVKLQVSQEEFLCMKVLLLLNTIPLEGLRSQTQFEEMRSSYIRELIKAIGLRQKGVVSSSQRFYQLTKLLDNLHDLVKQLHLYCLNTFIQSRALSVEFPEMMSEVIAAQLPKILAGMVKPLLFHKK
endogenous ERα-36 in T47D cells (P03372-4, form named): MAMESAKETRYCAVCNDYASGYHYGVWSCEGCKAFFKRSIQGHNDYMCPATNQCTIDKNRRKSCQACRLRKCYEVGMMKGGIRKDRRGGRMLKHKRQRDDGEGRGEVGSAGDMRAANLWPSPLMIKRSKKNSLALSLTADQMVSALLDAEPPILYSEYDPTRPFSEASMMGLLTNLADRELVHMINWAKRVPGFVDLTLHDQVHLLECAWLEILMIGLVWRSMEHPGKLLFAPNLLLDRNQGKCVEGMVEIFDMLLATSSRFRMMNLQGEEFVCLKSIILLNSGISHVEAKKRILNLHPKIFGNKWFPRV

Molecular target: endogenous PR (progesterone receptor) in T47D cells (human (endogenous in T47D)) (UniProt P06401)
Assay: proximity ligation; endogenous proteins in methanol-fixed T47D cells, anti-PR and anti-ERα-36 antibodies; control siRNA or siRNA against PR; 10 nM R5020 for the indicated times

## endogenous ERα-36 in T47D cells (from UniProt P03372-4 1-310)
  binding: binds
